Patent US9446063B2, “Methods for treating type-2 diabetes and obesity” (priority 2009, dated 2016)
Marks after values point to notes of the source that are not given here.

Assay: HPLC quantification of ascorbic acid, chlorogenic acid, caffeic acid, ferulic acid and rutin in tubers, tuber tissues and extracts
Conditions: for Virtual tuber (100 g FM) HPLC mean of 12 Canadian-grown cultivars, 1 month: 1 month storage; for Virtual tuber (100 g FM) HPLC mean of 12 Canadian-grown cultivars, 7 months: 7 months storage

O=C1O[C@H]([C@@H](O)CO)C(O)=C1O [ascorbic acid]
Virtual tuber (100 g FM) HPLC mean of 12 Canadian-grown cultivars, 1 month: 30.67 ± 1.21^a mg/100 g FM | Virtual tuber (100 g FM) HPLC mean of 12 Canadian-grown cultivars, 7 months: 5.99 ± 0.23^b mg/100 g FM

O=C(O)/C=C/c1ccc(O)c(O)c1 [caffeic acid]
Virtual tuber (100 g FM) HPLC mean of 12 Canadian-grown cultivars, 1 month: 0.31 ± 0.03^a mg/100 g FM | Virtual tuber (100 g FM) HPLC mean of 12 Canadian-grown cultivars, 7 months: 0.02 ± 0.01^b mg/100 g FM

COc1cc(/C=C/C(=O)O)ccc1O [ferulic acid]
Virtual tuber (100 g FM) HPLC mean of 12 Canadian-grown cultivars, 1 month: 0.38 ± 0.04^a mg/100 g FM | Virtual tuber (100 g FM) HPLC mean of 12 Canadian-grown cultivars, 7 months: 0.04 ± 0.01^b mg/100 g FM
